Earlier results in article PMC9495826, “Membranolytic Mechanism of Amphiphilic Antimicrobial β-Stranded [KL]n Peptides” (Biomedicines, 2022).
Read-outs that look alike come from different tables or passages of the source.

Conditions: ref [58],[59], cited from earlier work

In the case of alamethicin, the “Inner diameter of water-filled barrel-stave pores” value (in DLPC) is listed as 1.8 nm and the “Inner diameter of water-filled barrel-stave pores” value (in DPhPC) is listed as 2.6 nm.
